Source: PubChem BioAssay AID686937 (Drosophila RNAi Screening Center, 2013)
In all, the deposit lists about 23,000 reagents; shown is a random part of those that have a named target and a result. 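Reduced-secretion tags in replicate 1 do not always agree with the z-scores; no criterion for assigning the tags was given.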 A plus sign joins genes that one reagent is predicted to hit. Not all columns of the deposit are shown. The record does not give: the amount of reagent.

- Aim: 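Knock-downs that reduce output of a secreted reporter enzyme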 (primary screen)
- Cell system: Drosophila S2 cells expressing secreted horseradish peroxidase
- Reagents: long dsRNA against Drosophila genes
- Duration: about 5.5 days (5 days dsRNA, then 12 h reporter induction)
- Conditions: reporter expression induced after 5 days of dsRNA, read 12 h later; inducer not stated
- Detection: 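Chemiluminescent measurement of peroxidase in the medium 12 h after reporter induction, following 5 days of dsRNA, given as a z-score per plate; higher means more secretion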
- Scale: z-score: higher = more reporter secreted into medium

The opening 3 records, to show the layout:
IFT46 (Intraflagellar transport 46) [DRSC02462]
- z-score, replicate 1: 0.41

CG10063 [DRSC09688]
- z-score, replicate 1: -0.45

ppk8 (pickpocket 8) [DRSC17269]
- z-score, replicate 1: 0.1

Main list, from the first entry:
IFT46 (Intraflagellar transport 46) [DRSC02462]
- z-score, replicate 1: 0.41

CG10063 [DRSC09688]
- z-score, replicate 1: -0.45

ppk8 (pickpocket 8) [DRSC17269]
- z-score, replicate 1: 0.1

CG32204 [DRSC09574]
- z-score, replicate 1: -2.51

mri (mrityu) [DRSC08259]
- z-score, replicate 1: 0.14

CG10628 [DRSC02080]
- z-score, replicate 1: 0.23

CG5011 [DRSC00674]
- z-score, replicate 1: 0.21

Hexo2 (Hexosaminidase 2) [DRSC18671]
- z-score, replicate 1: 0.38

Dbx [DRSC08270]
- z-score, replicate 1: 0.22

Dbx [DRSC08271]
- z-score, replicate 1: 0.49

Dbx [DRSC08394]
- z-score, replicate 1: 0.29

CG13924 [DRSC08393]
- z-score, replicate 1: 0.4

Syn (Synapsin) [DRSC16876]
- z-score, replicate 1: 0.1

AP-1gamma (Adaptor Protein complex 1, gamma subunit) [DRSC18433]
- z-score, replicate 1: -0.43

BomBc2 (Bomanin Bicipital 2) [DRSC06502]
- z-score, replicate 1: 0.05

CG15450 [DRSC20522]
- z-score, replicate 1: -2.87

CG34247 [DRSC09933]
- z-score, replicate 1: 0.28

snoRNA:U31:54Ec + snoRNA:snR38:54Eb + snoRNA:U27:54Eb + 8 more [DRSC06458]
- z-score, replicate 1: 0.01

Bet3 (Blocked early in transport 3) [DRSC10388]
- z-score, replicate 1: -1.88

CG16852 [DRSC01876]
- z-score, replicate 1: -0.2

Arglu1 (Arginine and glutamate rich 1) [DRSC02909]
- z-score, replicate 1: 0.54

CG14835 [DRSC10205]
- z-score, replicate 1: 0.16

Cht7 (Chitinase 7) [DRSC08538]
- z-score, replicate 1: 0.23

Cht7 (Chitinase 7) [DRSC21783]
- z-score, replicate 1: -0.05

CG42382 [DRSC07671]
- z-score, replicate 1: 0.13

APC7 (Anaphase Promoting Complex subunit 7) [DRSC17937]
- z-score, replicate 1: 0.44

gcm (glial cells missing) [DRSC03536]
- z-score, replicate 1: 0.64
